# From PubChem BioAssay AID493014 (National Center for Advancing Translational Sciences (NCATS), 2011)
# The other results are listed elsewhere or left out. The main result of the screen is listed elsewhere. These columns were measured beside it and carry no call. Most of these compounds were active or inconclusive in the main read-out, so they are no random draw. The note in brackets gives the kind of curve behind each potency; many fits are weak.
# Assay: qHTS Assay to Find Inhibitors of Chronic Active B-Cell Receptor Signaling
# Details: ABC-DLBCL IkBa-CBG/CBR reporter, luminescence ratio (green luciferase fused to IkBa over red control in TMD8 lymphoma cells), 4 h
# Summary of the method: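 TMD8 ABC-DLBCL cells carrying doxycycline-inducible green luciferase fused to IkappaBalpha plus unfused red luciferase were exposed to compounds (up to 46 uM) for 4 hrs at 37C. Activity came from the overlap-corrected green/red luminescence ratio.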
# [1] = measured here: CBR red luminescence, cell number
# [2] = measured here: IkBa-CBG green luminescence
Compound,AC50 [1],AC50 [2]
CCCc1cc(N2CCOCC2)n2ncc(-c3ccccc3)c2n1,"10 µM [rising, partial curve, poor fit]",
COc1ccc(CC(=O)Nc2nnc(-c3cccc([N+](=O)[O-])c3)s2)cc1,"0.116 µM [rising, full curve, poor fit]",
CCOC(=O)c1sc(-c2ccc(Br)cc2)cc1N,"0.112 µM [rising, full curve, poor fit]",
CC(=O)NNc1ncnc2c1cnn2-c1ccc(C)c(C)c1,"10 µM [falling, partial curve]",
C/C(CC(=O)NC(C)(C)C)=N\NC(=O)c1ccco1,"10.3 µM [falling, single point]",
CCCCNc1c(-c2ccc(SC(C)CC)cc2)nc2cnccn12 (stereo unspecified),"3.26 µM [rising, partial curve]",
C/C(=N\NC(=S)NC(C)C)c1ccco1,"22.4 µM [falling, single point]","35.5 µM [falling, single point]"
CC(C(O)c1ccc(O)cc1)N1CCC(Cc2ccccc2)CC1 (stereo unspecified),"35.5 µM [falling, single point]",
O=C(CCCN1C(=O)/C(=C\c2cccs2)SC1=S)Nc1ccc(O)cc1,"15.8 µM [falling, single point]","11.2 µM [falling, partial curve, poor fit]"
CCC(C(=O)NC1CCCCC1)N(C(=O)c1snc(C(N)=O)c1N)c1ccc(OC)cc1OC (stereo unspecified),"3.55 µM [rising, single point]",
CC1Cc2ccccc2N1C(=O)Cc1cccs1 (stereo unspecified),"0.231 µM [rising, full curve, poor fit]",
Fc1ccc(OCc2nc(-c3cccs3)no2)cc1,"35.5 µM [falling, single point]",
COc1ccc2c(c1)CCC/C2=N\NC(=O)c1ccoc1C,"18.4 µM [falling, partial curve]",
COc1ccccc1CN1C[C@@H]2C[C@@H](c3[nH]c4ccc(C)cc4c3C)N3CCC[C@@]23C1=O,"35.5 µM [falling, single point]",
CCc1nc(Nc2ccc(N3CCN(C(C)=O)CC3)cc2)c2oc3ccccc3c2n1,"2 µM [falling, partial curve, poor fit]",
COc1ccc(C2=CC(=O)C[C@H](c3ccc(F)cc3)C2)c(OC)c1,"29.1 µM [falling, single point]",
O=C(c1ccco1)N1CCC(c2ccccc2)C1 (stereo unspecified),"15.8 µM [falling, single point]",
C=CCC(CC=C)(NC(=O)c1ccccc1C(=O)O)c1ccccc1,"6.51 µM [rising, single point]",
O=C(O)CCSc1ncnc2sc(-c3ccccc3)cc12,"2.82 µM [falling, full curve]",
CCC(c1c(C)n(C)n(-c2ccccc2)c1=O)c1c(C)n(C)n(-c2ccccc2)c1=O,"3.26 µM [rising, partial curve, poor fit]",
COC(=O)c1ccc(CSc2nc3c(c(=O)n2-c2ccc(F)cc2)SCC3)o1,"11.6 µM [rising, partial curve, poor fit]",

# Five entries out of the list, sorted by SMILES length, high to low:
Compound,AC50 [1],AC50 [2]
CCc1nc(Nc2ccc(N3CCN(C(C)=O)CC3)cc2)c2oc3ccccc3c2n1,"2 µM [falling, partial curve, poor fit]",
C=CCC(CC=C)(NC(=O)c1ccccc1C(=O)O)c1ccccc1,"6.51 µM [rising, single point]",
CC(C(O)c1ccc(O)cc1)N1CCC(Cc2ccccc2)CC1 (stereo unspecified),"35.5 µM [falling, single point]",
CC(=O)NNc1ncnc2c1cnn2-c1ccc(C)c(C)c1,"10 µM [falling, partial curve]",
Fc1ccc(OCc2nc(-c3cccs3)no2)cc1,"35.5 µM [falling, single point]",

# More results follow:

Compound,AC50 [1],AC50 [2]
Cc1nc(NS(=O)(=O)c2ccccc2)sc1C(=O)NN,"2 µM [falling, partial curve, poor fit]",
COc1ccc(C(=O)Nc2ccc3c(c2)nc(CCNC(C)=O)n3C)cc1,"13 µM [falling, partial curve, poor fit]",
O=C(N/N=C/c1c[nH]c2ccccc12)c1cccc(O)c1,"14.1 µM [falling, partial curve, poor fit]",
Cc1ccccc1Cn1cc(NC(=O)c2cc(C3CC3)on2)cn1,"15.8 µM [falling, partial curve, poor fit]",
COc1ccccc1-c1c(C(F)(F)F)oc2cc(OC(=O)c3ccccc3[N+](=O)[O-])ccc2c1=O,"6.31 µM [rising, partial curve, poor fit]",
COc1ccc(C(=O)NNc2ncnc3c2cnn3-c2ccccc2)cc1,"35.5 µM [falling, single point]",
O=S1(=O)c2ccccc2OC(COCc2ccccc2)CN1C1CC1 (stereo unspecified),"3.26 µM [rising, partial curve, poor fit]",
Cc1ccc(S(=O)(=O)N2CCCCC2)cc1NC(=O)C1CCC1,"25.9 µM [rising, single point]","20.6 µM [falling, partial curve, poor fit]"
COc1cccc(NC(=O)c2ccc(OC(F)(F)F)cc2)c1,"0.731 µM [falling, full curve, poor fit]",
CC(=O)Nc1ccc(NC(=O)CSc2nc3[nH]ncc3c(=O)n2-c2ccccc2)cc1,"0.631 µM [falling, partial curve, poor fit]",
CC(C)NC(=O)NC(=O)COC(=O)c1c2c(nc3ccccc13)CCC2,"35.5 µM [falling, single point]",
CC(C)c1ccc(/C=C/C(=O)N2CCOCC2)cc1,"2.51 µM [rising, full curve]",
O=C(NC(=S)NC(CO)Cc1ccccc1)c1ccc(F)cc1 (stereo unspecified),"35.5 µM [falling, single point]",
O=C(Nc1nccs1)C(=O)c1c[nH]c2ccccc12,"8.2 µM [falling, partial curve, poor fit]",
CCCCn1nc(NC(=O)COC)c2cc3cc(OC)ccc3nc21,"2.82 µM [rising, single point]",
COc1cccc(N2CCN(C(=O)C3CCCN(c4ncnc5c4nc4n5CCCCC4)C3)CC2)c1 (stereo unspecified),"11.2 µM [falling, partial curve]",
O=C(COc1ccccc1)Nc1ccc(Cl)cn1,"11.2 µM [falling, single point]",
O=C(Nc1nnc(-c2ccccc2F)s1)C1CCCO1 (stereo unspecified),"16.4 µM [falling, partial curve, poor fit]",
COc1ccccc1-n1c(CNc2c(C)cccc2C)nnc1SCC(=O)N1CCOCC1,"2.59 µM [falling, full curve, poor fit]",
Cc1[nH]n(C(N)=S)c(=O)c1N=Nc1cc(-c2ccc(Br)cc2)[nH]n1,"10 µM [falling, partial curve, poor fit]",
COc1ccccc1/C=C/C(=O)NC1CC2CCC1C2 (stereo unspecified),"3.16 µM [falling, partial curve]",

Compound,AC50 [1],AC50 [2]
COc1cccc(/C=N/N=C(\N)c2nonc2N)c1O,"14.1 µM [falling, single point]",
COc1ccc(CCN2CC(O)=C(c3nc4ccccc4c(=O)[nH]3)C2=N)cc1OC,"2.31 µM [rising, partial curve, poor fit]",
O=C(CSc1nnnn1C1CCCCC1)NCc1cccc(C(=O)O)c1,"25.9 µM [rising, partial curve, poor fit]",
CCc1c(C(=O)N/N=C/c2ccc(OCc3ccc(F)cc3)c(OC)c2)nnn1-c1nonc1N,"6.31 µM [rising, partial curve, poor fit]",
Cc1cc2oc(=O)cc(-c3ccccc3)c2c(C)c1-c1ccc(N(C)C)cc1,"11.6 µM [rising, partial curve, poor fit]",
CN([C@@H](Cc1ccc(OS(=O)(=O)c2cccc3cnccc23)cc1)C(=O)N1CCN(c2ccccc2)CC1)S(=O)(=O)c1cccc2cnccc12,"5.8 µM [rising, full curve, poor fit]",
COc1ccc(S(=O)(=O)Nc2c(NC3CCCCC3)c3ccccc3oc2=O)cc1OC,"15.8 µM [falling, single point]",
COC(=O)C1=C(C(=O)OC)C(c2ccc(OC)c(OC)c2)c2sc(=O)[nH]c2S1 (stereo unspecified),"17.8 µM [rising, single point]",
O=C(c1cccs1)N1CCN(c2ncc(C(F)(F)F)cc2Cl)CC1,"2.24 µM [rising, full curve, poor fit]",
COc1ccccc1NC(=O)CC(=O)c1cccc([N+](=O)[O-])c1,"2.24 µM [rising, partial curve, poor fit]",
O=C1CC(c2ccco2)CC2=C1C1c3ccccc3C(=O)N1c1ccccc1N2 (stereo unspecified),"0.231 µM [falling, full curve]",
COC(=O)c1cc(OC)c(OC)cc1NC(=O)C1CCCO1 (stereo unspecified),"29.1 µM [rising, single point]",
Clc1ccc(-n2ncc3c(N4CCCCCC4)ncnc32)cc1,"0.517 µM [rising, full curve, poor fit]",
CCc1ccc(-c2nnn(CCC#N)n2)cc1,"15.8 µM [rising, single point]",
COc1ccccc1NC(=S)Nc1cccc(F)c1,"5.17 µM [falling, single point]",
N#C/C(=C\c1ccncc1)c1nc2ccccc2[nH]1,"20 µM [falling, single point]",
C[C@@H]1C(c2ccc(F)cc2)=NN(c2ccc(Br)cc2)[C@H]1C(=O)N1CCOC1=O,"20.6 µM [falling, partial curve, poor fit]",
O=C(Cc1cccs1)Nc1nnc(-c2ccc(F)cc2)s1,"10 µM [falling, partial curve]",
O=C(O)C1=CC(=C(c2ccc(O)c(C(=O)O)c2)c2ccc(O)c(C(=O)O)c2)C=CC1=O,"1.84 µM [falling, partial curve, poor fit]",
O=C(NC1CCCC1)c1cc(-c2ccccc2)on1,"11.2 µM [falling, partial curve]",
CCOc1ccc(-c2nnc(-c3ccco3)o2)cc1OCC,"5.62 µM [rising, partial curve, poor fit]",
